The values that follow come from PMC2815545.

The chains behind the UniProt entries cited, without tags or fusion partners.
UniProt P05549: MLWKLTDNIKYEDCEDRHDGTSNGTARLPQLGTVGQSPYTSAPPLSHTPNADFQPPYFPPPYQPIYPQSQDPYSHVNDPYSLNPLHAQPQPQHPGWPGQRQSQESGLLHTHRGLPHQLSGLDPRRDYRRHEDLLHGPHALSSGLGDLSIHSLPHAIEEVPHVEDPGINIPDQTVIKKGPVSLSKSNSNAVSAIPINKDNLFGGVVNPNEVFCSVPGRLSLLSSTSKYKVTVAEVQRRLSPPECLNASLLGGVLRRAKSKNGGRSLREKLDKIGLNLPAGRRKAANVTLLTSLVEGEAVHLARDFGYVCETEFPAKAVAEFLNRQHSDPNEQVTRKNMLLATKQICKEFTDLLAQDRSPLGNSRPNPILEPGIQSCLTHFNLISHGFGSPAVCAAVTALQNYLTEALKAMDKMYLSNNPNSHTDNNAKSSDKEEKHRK
UniProt P13010: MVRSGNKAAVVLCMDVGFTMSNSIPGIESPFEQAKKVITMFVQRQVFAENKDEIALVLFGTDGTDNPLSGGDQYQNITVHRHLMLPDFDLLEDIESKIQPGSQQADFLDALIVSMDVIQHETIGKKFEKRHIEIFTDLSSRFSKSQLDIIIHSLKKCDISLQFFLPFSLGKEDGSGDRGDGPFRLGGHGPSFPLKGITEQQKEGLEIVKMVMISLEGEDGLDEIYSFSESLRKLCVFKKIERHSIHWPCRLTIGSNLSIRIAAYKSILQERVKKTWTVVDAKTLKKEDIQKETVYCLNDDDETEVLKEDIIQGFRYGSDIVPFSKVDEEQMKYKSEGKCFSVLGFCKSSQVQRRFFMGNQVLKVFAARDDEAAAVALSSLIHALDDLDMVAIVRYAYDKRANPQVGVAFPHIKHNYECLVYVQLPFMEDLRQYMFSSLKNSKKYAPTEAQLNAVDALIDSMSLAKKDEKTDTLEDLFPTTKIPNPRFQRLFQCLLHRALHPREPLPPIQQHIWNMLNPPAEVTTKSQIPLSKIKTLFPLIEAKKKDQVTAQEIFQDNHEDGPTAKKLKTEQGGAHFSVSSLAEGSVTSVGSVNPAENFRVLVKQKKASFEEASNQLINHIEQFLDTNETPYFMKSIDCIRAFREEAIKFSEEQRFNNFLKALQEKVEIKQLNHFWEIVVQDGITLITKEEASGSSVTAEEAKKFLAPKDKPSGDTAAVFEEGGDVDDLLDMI
UniProt P12956: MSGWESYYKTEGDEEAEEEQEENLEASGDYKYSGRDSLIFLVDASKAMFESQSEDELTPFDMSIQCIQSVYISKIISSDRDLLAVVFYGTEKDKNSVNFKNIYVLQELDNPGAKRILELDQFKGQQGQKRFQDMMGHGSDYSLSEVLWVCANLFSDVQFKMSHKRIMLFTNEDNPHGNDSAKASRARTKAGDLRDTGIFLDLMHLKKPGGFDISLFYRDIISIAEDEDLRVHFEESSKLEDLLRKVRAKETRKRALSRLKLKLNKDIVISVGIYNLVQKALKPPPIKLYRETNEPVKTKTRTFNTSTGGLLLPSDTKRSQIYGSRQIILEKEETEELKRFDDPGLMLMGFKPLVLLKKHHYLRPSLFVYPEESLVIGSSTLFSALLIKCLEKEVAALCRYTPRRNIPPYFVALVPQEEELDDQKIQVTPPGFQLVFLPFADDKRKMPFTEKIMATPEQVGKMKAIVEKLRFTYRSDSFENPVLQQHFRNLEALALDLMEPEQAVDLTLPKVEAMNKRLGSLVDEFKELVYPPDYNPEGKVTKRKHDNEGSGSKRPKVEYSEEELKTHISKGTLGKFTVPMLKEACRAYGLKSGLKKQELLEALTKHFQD

These are yes or no findings as the source states them, for the method shown. Binding seen in cells or lysates may run through a third protein. These calls come from enrichment with a bait or labelling near it, and not all partners need be listed.

For this assay, the target named is Glutathione-Serine-Transferase/AP-2α (GST-AP2) hybrid protein (UniProt P05549). The assay can be described thus: affinity purification with mass spectrometry; GST-AP2 or GST on MagneGST beads incubated 50 min at RT in PBS with 100 μg BT474 nuclear proteins; washed with PBS/0,01% Tween; eluted with 8 M urea, two-dimensional gel electrophoresis, silver stain, spots identified by LC-MS/MS; only the target purified.

Regarding Ku80 (from UniProt P13010 1-732), the binding entry is given as “binds”.

On to Ku70 (from UniProt P12956 1-609), for which the binding entry is recorded as “binds”.
